At least one read-out could not be matched to a standard name with certainty.
Test: In vivo PK, oral doses of 10, 30 and 60 mg/kg
Parameters: species or system female CB.17 SCID mice
Settings: oral dose of 30 mg/kg
Description: FIG. 5 illustrates in vivo PK results for multiple doses of Compound 2 administered orally. 9 female CB.17 SCID mice per group were used except for vehicle control group, where 15 mice were tested. Three drug doses were used (10, 30 and 60 mg/kg), with dosing volume of 10 mL/kg (0.200 mL/20 g mouse) for each dose. Volume was adjusted for body weight, and analysis was run at 6 different time points.
For suitability of murine AITL patient derived xenografts (PDX) studies, pharmacokinetics (PK) of Compound 2 were determined by IV, oral, and IP administration (FIG. 4). These parameters provided confidence for oral administration studies at different doses and are suitable for further PK studies at 24-hour measurement at different oral doses. The study allowed one to determine the dose that results in a blood level of ˜IC80.

In the case of `Cc1cccc(C(=O)NC2(C(=O)O)Cc3ccccc3C2)c1CC(C)C` [Compound 2, 2-(2-isobutyl-3-methylbenzamido)-2,3-dihydro-1H-indene-2-carboxylic acid], the “blood levels relative to IC80” value is reported as “slightly less than an IC80”.

From patent US12414927B2, “CXCR5 antagonists and methods of treating diseases or disorders using same” (YALE UNIVERSITY, priority 2020, dated 2025)
